According to the supplement of paper PMC12819154, “High-throughput peptide-centric local stability assay extends protein–ligand identification to membrane proteins, tissues and bacteria” (Nature Structural & Molecular Biology, 2025):
Some of the results follow. Most values lie at the level of the controls, where differences are scatter.

Amino acid sequences for entries named in this document (tags omitted). A change or cut given only in a name is not applied to a line headed by its entry.
UniProt P0CW19: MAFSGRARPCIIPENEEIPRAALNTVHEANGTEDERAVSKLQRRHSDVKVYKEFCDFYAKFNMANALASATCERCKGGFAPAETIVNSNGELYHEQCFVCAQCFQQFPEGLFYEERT
UniProt P13073, whole entry: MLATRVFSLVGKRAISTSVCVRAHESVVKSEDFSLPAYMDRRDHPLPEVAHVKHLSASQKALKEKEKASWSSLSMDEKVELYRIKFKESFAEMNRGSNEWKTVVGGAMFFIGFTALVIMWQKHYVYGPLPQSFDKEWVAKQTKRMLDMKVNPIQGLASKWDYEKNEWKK
UniProt P02008: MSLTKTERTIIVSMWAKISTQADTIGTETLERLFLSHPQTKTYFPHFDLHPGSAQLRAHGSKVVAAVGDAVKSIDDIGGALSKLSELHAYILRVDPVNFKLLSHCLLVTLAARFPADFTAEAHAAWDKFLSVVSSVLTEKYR
UniProt P10619: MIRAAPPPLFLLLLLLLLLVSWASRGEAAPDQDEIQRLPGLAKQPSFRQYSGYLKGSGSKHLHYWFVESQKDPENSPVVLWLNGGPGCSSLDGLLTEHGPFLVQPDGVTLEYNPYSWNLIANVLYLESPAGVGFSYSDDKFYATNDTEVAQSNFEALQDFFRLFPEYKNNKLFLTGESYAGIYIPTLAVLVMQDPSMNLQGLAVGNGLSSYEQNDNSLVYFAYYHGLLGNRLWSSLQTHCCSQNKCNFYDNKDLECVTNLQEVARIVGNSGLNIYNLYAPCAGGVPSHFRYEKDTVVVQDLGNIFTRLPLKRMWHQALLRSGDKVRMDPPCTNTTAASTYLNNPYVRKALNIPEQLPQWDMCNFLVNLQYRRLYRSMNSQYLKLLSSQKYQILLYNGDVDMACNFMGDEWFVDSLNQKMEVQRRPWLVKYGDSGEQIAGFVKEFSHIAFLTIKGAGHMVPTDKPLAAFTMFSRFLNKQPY
UniProt P08579, whole entry: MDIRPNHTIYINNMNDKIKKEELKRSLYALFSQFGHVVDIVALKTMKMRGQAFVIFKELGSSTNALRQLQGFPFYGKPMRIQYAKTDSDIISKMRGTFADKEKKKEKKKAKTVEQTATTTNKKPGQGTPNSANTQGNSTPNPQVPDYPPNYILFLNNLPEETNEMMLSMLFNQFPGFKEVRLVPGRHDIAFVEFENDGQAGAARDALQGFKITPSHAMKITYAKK
UniProt P10075: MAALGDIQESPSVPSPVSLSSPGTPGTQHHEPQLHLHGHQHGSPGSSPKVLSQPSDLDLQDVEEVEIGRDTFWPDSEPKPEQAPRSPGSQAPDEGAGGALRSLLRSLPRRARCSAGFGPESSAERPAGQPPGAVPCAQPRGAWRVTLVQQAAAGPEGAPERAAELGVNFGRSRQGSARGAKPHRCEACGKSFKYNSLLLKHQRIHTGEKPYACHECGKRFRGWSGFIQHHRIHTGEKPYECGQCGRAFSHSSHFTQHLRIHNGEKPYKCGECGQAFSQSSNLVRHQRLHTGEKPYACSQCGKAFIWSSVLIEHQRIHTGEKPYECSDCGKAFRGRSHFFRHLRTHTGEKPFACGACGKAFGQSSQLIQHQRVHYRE
UniProt P0CG12: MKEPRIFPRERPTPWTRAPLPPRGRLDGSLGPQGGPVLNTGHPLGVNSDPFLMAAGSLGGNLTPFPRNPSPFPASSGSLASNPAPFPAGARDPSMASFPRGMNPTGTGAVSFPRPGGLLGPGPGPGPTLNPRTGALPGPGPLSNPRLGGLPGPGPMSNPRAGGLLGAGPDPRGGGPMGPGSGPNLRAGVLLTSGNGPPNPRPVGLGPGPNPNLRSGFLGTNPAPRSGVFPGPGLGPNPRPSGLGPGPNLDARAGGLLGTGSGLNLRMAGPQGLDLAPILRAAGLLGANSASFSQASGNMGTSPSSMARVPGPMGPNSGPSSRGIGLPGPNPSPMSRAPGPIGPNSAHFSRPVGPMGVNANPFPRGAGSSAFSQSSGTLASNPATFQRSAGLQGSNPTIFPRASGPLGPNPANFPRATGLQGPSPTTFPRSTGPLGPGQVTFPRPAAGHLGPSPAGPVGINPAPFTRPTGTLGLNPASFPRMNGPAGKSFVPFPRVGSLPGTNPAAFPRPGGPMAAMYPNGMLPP
UniProt P0DJ93: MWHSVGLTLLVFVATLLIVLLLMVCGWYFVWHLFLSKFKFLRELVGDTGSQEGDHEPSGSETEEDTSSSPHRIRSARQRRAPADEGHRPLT
UniProt P12955: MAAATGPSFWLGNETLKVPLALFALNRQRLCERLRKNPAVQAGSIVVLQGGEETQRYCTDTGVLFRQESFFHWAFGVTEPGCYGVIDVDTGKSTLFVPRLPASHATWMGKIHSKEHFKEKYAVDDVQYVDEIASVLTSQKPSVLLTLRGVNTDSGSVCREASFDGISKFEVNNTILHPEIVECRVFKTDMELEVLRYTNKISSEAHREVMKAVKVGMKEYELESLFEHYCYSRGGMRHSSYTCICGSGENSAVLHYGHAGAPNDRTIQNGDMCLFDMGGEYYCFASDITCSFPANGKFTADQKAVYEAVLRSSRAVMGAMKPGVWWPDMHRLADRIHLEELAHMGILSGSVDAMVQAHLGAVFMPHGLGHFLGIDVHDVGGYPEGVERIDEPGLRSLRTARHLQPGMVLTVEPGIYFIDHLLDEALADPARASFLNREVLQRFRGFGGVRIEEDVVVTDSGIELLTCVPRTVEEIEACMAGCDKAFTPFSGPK
UniProt P04899, whole entry: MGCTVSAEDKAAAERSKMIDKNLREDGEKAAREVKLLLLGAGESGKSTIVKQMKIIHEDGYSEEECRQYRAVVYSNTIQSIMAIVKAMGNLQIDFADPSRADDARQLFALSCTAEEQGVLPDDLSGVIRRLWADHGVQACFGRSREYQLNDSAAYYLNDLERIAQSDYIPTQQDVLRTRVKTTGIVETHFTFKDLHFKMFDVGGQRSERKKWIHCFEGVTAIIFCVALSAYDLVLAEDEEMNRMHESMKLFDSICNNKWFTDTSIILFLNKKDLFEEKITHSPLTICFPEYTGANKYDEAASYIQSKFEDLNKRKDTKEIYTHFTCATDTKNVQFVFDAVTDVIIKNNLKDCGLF
UniProt P10588: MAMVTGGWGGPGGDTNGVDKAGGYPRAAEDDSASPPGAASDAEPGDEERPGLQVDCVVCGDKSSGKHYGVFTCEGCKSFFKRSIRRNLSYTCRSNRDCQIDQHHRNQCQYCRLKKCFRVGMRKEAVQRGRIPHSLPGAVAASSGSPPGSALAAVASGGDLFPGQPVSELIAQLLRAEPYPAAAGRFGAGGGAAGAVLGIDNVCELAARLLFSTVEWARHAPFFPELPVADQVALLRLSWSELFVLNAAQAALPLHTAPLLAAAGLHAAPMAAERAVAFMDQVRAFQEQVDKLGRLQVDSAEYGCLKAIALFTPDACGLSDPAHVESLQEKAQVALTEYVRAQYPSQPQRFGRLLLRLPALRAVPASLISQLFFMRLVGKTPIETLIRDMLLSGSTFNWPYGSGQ
UniProt P04406: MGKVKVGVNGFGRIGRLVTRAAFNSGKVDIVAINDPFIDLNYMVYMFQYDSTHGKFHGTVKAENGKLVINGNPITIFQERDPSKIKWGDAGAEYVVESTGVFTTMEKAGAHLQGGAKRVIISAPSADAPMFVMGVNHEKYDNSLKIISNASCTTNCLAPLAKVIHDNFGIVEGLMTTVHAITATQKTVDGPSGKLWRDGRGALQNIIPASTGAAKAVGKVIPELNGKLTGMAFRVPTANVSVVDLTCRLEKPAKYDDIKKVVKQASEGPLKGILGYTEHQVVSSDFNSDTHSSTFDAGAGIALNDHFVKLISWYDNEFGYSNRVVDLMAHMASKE
UniProt P04035: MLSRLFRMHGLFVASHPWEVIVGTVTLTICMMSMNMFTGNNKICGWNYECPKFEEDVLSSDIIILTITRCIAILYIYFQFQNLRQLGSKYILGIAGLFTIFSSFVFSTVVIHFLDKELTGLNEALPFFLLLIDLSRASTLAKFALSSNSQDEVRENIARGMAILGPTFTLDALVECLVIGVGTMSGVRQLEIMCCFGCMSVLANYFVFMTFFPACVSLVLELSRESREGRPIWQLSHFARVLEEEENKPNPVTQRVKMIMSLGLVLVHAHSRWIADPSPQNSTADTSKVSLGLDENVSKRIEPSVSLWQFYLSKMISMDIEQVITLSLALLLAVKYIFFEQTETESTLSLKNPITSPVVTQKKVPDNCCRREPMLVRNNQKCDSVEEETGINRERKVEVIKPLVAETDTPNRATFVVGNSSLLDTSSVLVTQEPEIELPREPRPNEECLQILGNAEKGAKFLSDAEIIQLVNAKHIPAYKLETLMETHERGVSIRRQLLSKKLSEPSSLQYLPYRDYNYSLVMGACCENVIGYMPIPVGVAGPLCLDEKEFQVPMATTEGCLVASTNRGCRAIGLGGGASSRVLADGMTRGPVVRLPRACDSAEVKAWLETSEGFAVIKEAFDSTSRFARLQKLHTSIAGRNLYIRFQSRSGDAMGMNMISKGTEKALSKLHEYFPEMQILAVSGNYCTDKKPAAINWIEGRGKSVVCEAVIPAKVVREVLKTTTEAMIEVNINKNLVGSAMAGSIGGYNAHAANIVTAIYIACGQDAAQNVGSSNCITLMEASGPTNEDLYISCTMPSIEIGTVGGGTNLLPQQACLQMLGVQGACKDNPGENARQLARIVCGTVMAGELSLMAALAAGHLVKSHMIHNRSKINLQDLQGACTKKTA
UniProt P08397: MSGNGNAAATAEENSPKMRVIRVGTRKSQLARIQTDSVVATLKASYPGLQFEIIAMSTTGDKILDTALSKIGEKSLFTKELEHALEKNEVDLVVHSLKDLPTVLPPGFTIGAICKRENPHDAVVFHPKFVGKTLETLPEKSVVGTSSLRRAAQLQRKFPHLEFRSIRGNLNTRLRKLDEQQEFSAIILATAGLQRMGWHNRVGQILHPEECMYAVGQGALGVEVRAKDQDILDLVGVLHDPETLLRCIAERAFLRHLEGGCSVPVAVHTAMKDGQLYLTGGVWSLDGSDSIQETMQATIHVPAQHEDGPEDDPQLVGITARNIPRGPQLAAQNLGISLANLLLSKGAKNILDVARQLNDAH
UniProt P00505: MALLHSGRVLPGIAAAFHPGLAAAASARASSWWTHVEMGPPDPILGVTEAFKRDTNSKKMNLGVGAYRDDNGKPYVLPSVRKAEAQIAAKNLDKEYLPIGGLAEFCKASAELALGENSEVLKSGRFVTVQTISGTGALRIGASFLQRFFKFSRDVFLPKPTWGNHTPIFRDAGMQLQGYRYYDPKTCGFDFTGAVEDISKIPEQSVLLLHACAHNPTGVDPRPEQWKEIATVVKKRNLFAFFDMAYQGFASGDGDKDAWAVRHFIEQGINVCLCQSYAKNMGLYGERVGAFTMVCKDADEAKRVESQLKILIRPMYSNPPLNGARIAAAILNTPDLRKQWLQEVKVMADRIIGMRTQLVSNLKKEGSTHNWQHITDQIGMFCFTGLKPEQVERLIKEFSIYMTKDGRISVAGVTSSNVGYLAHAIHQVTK
UniProt P00492: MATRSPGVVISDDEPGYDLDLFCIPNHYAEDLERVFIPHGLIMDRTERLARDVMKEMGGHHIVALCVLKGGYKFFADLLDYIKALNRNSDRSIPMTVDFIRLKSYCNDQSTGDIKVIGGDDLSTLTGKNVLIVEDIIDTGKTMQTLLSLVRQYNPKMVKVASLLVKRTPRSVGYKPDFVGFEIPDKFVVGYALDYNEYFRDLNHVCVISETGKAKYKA
UniProt P12980: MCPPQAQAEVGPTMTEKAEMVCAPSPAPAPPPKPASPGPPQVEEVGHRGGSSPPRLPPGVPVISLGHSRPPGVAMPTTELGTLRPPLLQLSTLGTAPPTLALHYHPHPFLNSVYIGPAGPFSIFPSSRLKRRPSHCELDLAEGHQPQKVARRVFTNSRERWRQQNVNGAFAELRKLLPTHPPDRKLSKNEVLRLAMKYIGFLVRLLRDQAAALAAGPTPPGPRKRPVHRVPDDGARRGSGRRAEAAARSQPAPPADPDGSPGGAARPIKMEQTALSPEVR
UniProt P07199: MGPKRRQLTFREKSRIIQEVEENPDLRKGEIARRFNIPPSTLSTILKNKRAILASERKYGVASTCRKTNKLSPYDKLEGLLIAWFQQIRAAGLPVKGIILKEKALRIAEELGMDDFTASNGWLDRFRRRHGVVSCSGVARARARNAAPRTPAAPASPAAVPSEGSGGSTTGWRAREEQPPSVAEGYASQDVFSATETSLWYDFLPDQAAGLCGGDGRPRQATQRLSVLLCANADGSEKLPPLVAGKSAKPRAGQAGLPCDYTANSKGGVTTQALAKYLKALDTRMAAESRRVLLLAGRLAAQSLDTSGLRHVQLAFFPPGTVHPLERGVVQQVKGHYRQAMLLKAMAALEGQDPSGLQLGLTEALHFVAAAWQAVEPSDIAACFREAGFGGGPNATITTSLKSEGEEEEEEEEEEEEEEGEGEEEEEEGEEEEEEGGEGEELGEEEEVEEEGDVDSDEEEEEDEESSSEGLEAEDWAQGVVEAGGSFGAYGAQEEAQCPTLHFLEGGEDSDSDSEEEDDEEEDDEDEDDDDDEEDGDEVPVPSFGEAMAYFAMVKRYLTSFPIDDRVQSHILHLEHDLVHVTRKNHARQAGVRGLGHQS

Compound: CN[C@@H]1C[C@H]2O[C@@](C)([C@@H]1OC)n1c3ccccc3c3c4c(c5c6ccccc6n2c5c31)C(=O)NC4 [staurosporine]
Assay: log2 fold change of tryptic peptide abundance, ligand vs vehicle (limited proteolysis) (log2 ratio); higher = more trypsin-susceptible (destabilized)
Settings: ligand concentration: 20 uM; sample: K562 cleared lysate; digestion: 4 min, 22 C (HT-PELSA RT4min, Orbitrap Astral)

Target | log2 fold change
UniProt P05060 (peptide sequence: RHPQGAWK, peptide start residue: 458) | -0.154
UniProt P0CW19 (peptide sequence: ARPCIIPENEEIPR, peptide start residue: 7) | -0.34
COX4I1 (peptide sequence: FKESFAEMNR, peptide start residue: 86) (UniProt P13073) | -0.61
UniProt P0DJJ0 (peptide sequence: STVSETFMSKPSIAKR, peptide start residue: 424) | 0.49
HBZ (peptide sequence: LSELHAYILR, peptide start residue: 84) (UniProt P02008) | 0.155
CTSA (peptide sequence: EFSHIAFLTIK, peptide start residue: 443) (UniProt P10619) | 1.1
SNRPB2 (peptide sequence: TVEQTATTTNK, peptide start residue: 112) (UniProt P08579) | -0.0964
UniProt P10075 (peptide sequence: AFIWSSVLIEHQR, peptide start residue: 303) | -0.726
UniProt P0CG12 (peptide sequence: GGGPMGPGSGPNLR, peptide start residue: 173) | 0.21
SMIM13 (peptide sequence: APADEGHRPLT, peptide start residue: 81) (UniProt P0DJ93) | -0.29
C0HKE1 (peptide sequence: NDEELNKLLGR, peptide start residue: 90) (UniProt P04908) | 0.0908
CAT (peptide sequence: NAIHTFVQSGSHLAAR, peptide start residue: 507) (UniProt P04040) | -0.139
DBT (peptide sequence: LSEVVGSGK, peptide start residue: 188) (UniProt P11182) | 0.537
PEPD (peptide sequence: AFTPFSGPK, peptide start residue: 485) (UniProt P12955) | 0.042
GNAI2 (peptide sequence: MIDKNLR, peptide start residue: 18) (UniProt P04899) | 0.3
NR2F6 (peptide sequence: AFQEQVDKLGR, peptide start residue: 284) (UniProt P10588) | 0.368
GAPDH (peptide sequence: GKVKVGVNGFGR, peptide start residue: 2) (UniProt P04406) | 1.55
HMGCR (peptide sequence: FLSDAEIIQLVNAK, peptide start residue: 461) (UniProt P04035) | 0.763
HMBS (peptide sequence: HLEGGCSVPVAVHTAMK, peptide start residue: 256) (UniProt P08397) | 0.0939
GOT2 (peptide sequence: KAEAQIAAK, peptide start residue: 82) (UniProt P00505) | 0.451
HPRT1 (peptide sequence: VFIPHGLIMDR, peptide start residue: 35) (UniProt P00492) | 0.168
APOE (peptide sequence: LAVYQAGAR, peptide start residue: 177) (UniProt P02649) | 0.205
OAT (peptide sequence: HQVLFIADEIQTGLAR, peptide start residue: 256) (UniProt P04181) | -0.476
LYL1 (peptide sequence: RPSHCELDLAEGHQPQK, peptide start residue: 132) (UniProt P12980) | -0.157
LTA4H (peptide sequence: WEDAIPLALK, peptide start residue: 548) (UniProt P09960) | -0.113
CENPB (peptide sequence: LAAQSLDTSGLR, peptide start residue: 299) (UniProt P07199) | -0.187
GUSB (peptide sequence: WLGANAFR, peptide start residue: 375) (UniProt P08236) | -0.184
ITGB1 (peptide sequence: WDTGENPIYK, peptide start residue: 775) (UniProt P05556) | -0.0939
UROD (peptide sequence: QMLDDFGPHR, peptide start residue: 323) (UniProt P06132) | 0.784

Another view of part of the listing above.
Target	log2 fold change
HMGCR (peptide sequence: FLSDAEIIQLVNAK, peptide start residue: 461) (UniProt P04035)	0.763
CENPB (peptide sequence: LAAQSLDTSGLR, peptide start residue: 299) (UniProt P07199)	-0.187
